Assay results from publication PMC10607160 (International Journal of Molecular Sciences, 2023).

Assay: general procedure: Fmoc solid-phase peptide synthesis; 2-chlorotrityl chloride (CLTR-Cl) resin; Ethyl Indole AM resin
Conditions: whole synthesis, 214 nm, scale of the general procedure 1 g resin (2 g for analogue 4)

Substance | final HPLC purity [%]
[DCys6]GnRH | 93
[DLeu6, Pro9-NHEt]GnRH | 94.6
[DLys(Ahx-PDP)6, Pro9-NHEt]GnRH | 97
